Data on five substances can be found in patent publication US20170174725 (published 2017).

A short description of this data set: general procedure: Fmoc solid-phase peptide synthesis; PL-Rink resin (load. 0.55 mmol/g); HOBt/DIC/pyridine; PyBOP for cyclisation.
[1] abbreviates: whole synthesis, HPLC area-%, scale of the general procedure 2.75 mmol.
Setting [2] is: whole synthesis, HPLC area-%, Aquity UPLC BEH130 C18, UV 214 nm, scale 9.60 mmol.
Setting [3] is: whole synthesis, scale 9.60 mmol.

H-GYIQNEPLG-NH2: the “crude HPLC purity” value (whole synthesis, HPLC area-%, Aquity UPLC BEH130 C18, UV 214 nm, scale of the general procedure 2.75 mmol, run 1) was 79.0%; the “crude HPLC purity” value (whole synthesis, HPLC area-%, Aquity UPLC BEH130 C18, UV 214 nm, scale of the general procedure 2.75 mmol, run 2) came to 83.3%; the “crude HPLC purity” value (whole synthesis, HPLC area-%, Aquity UPLC BEH130 C18, UV 214 nm, scale of the general procedure 2.75 mmol, run 3) came out at 78.5%; the “crude HPLC purity” value (whole synthesis, HPLC area-%, Aquity UPLC BEH130 C18, UV 214 nm, scale of the general procedure 2.75 mmol, run 4) worked out at 82.7%; the “crude HPLC purity” value under setting [1] is 87.3%. The crude yield by setting is: (whole synthesis, scale of the general procedure 2.75 mmol, run 1) 90%; (whole synthesis, scale of the general procedure 2.75 mmol, run 2) 96%.
For the substance H-GYIQNEGLG-NH2, the “crude HPLC purity” value under setting [1] amounted to 67.4%.
“c[Gly-Tyr-Leu-Gln-Asn-Glu]-Pro-Leu-Gly-NH2”: for the setting “cyclisation step, HPLC area-%”, the “crude HPLC purity” value amounted to 71.4%. The “final HPLC purity” value under setting [2] was 98.2%. The substance also gave an isolated yield under setting [3] of 40%. The substance further yielded a crude yield (whole synthesis, scale of the general procedure 2.75 mmol) of 60%.
“c[Gly-Tyr-Ile-Gln-Asn-Glu]-trans-4-fluoro-Pro-Leu-Gly-NH2”: the “final HPLC purity” value (whole synthesis, HPLC area-%, Aquity UPLC BEH130 C18, UV 214 nm, scale 5.50 mmol) came to 98.8% and the “final HPLC purity” value under setting [2] is 98.8%. In addition, the isolated yield runs as follows: (whole synthesis, scale 5.50 mmol, run 1) 34%; (whole synthesis, scale 5.50 mmol, run 2) 25%; under setting [3], 39%.
“c[Gly-Tyr-Ile-Gln-Asn-Glu]-Gly-Leu-Gly-NH2”: the “crude HPLC purity” value reads like this: (cyclisation step, HPLC area-%) 56.6%; under setting [1], 15.9%; (whole synthesis, UV 214 nm, scale of the general procedure 2.75 mmol) 62.7%. For the same substance, the “final HPLC purity” value amounted to 99.2% (whole synthesis, HPLC area-%, scale of the general procedure 2.75 mmol, run 1) and 99.7% (whole synthesis, HPLC area-%, scale of the general procedure 2.75 mmol, run 2). Moreover, the crude yield was found to be 9% (whole synthesis, total, scale of the general procedure 2.75 mmol, run 1); 38% (whole synthesis, total, scale of the general procedure 2.75 mmol, run 2); 31% (whole synthesis, total, scale of the general procedure 2.75 mmol, run 3). Besides, the crude mass reads like this: (whole synthesis, run 1) 2.01 g; (whole synthesis, run 2) 2.39 g. For the same substance, the isolated mass amounted to 0.708 g (whole synthesis, run 1) and 0.444 g (whole synthesis, run 2).
